Experimental data as given in US20150315292A1 (VANDERBILT UNIVERSITY, published 2015).
No constants are given. Whether binding was seen depends on the method and setting. Some results given as binding are weak or reduced against the parent protein; the word gives no strength.

How the values were obtained:
[1] = biological target: T1, human coagulation factor XII (human) (UniProt P00748); experiment: Western blot of plasma after SDS-PAGE
T1 sequence (looked up): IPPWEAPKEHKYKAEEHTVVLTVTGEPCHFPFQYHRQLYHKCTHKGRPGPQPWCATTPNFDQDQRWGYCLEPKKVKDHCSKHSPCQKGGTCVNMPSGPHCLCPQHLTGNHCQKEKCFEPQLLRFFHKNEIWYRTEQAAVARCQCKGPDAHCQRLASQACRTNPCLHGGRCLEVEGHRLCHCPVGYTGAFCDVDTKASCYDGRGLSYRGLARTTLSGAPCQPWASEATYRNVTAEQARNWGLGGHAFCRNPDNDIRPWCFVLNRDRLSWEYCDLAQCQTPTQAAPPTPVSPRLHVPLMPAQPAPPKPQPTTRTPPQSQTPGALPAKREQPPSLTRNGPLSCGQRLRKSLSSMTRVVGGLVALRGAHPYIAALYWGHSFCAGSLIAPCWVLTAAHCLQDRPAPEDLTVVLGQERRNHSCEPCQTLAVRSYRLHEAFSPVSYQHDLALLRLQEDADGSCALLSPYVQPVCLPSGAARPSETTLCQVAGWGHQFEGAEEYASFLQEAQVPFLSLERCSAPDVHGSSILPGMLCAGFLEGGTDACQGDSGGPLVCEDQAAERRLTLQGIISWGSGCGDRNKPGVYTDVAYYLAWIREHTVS

[2] = biological target: T1, human coagulation factor XII (human); experiment: summary of the Example 2 results (Western blots)
[3] = biological target: T2, human coagulation factor XIIa (human) (UniProt P00748); experiment: summary of the Example 2 results (Western blots)
T2 sequence (looked up) 1: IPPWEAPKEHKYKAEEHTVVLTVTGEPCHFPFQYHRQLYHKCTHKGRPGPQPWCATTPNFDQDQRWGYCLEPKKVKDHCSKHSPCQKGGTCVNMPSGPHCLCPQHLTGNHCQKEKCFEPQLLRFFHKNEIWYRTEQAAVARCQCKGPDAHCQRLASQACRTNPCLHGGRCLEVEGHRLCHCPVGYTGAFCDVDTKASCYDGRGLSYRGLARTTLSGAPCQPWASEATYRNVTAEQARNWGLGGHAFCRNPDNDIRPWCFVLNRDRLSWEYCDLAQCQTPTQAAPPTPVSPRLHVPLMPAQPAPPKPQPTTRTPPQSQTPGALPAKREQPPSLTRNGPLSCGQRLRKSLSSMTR
T2 sequence (looked up) 2: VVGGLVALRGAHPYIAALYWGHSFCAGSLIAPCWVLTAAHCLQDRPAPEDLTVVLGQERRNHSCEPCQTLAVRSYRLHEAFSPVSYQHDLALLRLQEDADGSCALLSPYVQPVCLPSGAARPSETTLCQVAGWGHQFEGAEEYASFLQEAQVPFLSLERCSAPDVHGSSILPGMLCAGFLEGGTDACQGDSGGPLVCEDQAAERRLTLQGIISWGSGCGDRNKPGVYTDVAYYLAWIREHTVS

[4] = biological target: T1, human coagulation factor XII (human); experiment: recombinant fXII lacking domains and fXII/HGFA chimeras
[5] = biological target: T2, human coagulation factor XIIa (human); experiment: as above

binding [1]: binds
binding [2]: binds
binding [3]: binds
binding [4]: binds
binding [5]: binds
B1: monoclonal anti-human fXII antibody AB042 (antibody, V domains shown)
VH: EVQLQQSGAELVRPGASVKLSCTASGFNIKDDYMHWVKQRPEQGLEWIGWIDPENGDTEYASKFQGKATITSDTSSNTAYLQLSSLTSEDTAVYYCTENYYGSSFFAYWGQGTLVTVSA
VL: DIVMTQATPSVPVTPGESVSISCRSSKSLLHSNGITYLYWFLQRPGQSPQRLIYYMSNLASGVPDRFSGRGSGTDFTLRISRVEAEDVGVYYCMQSLEYPYTFGGGTKLEIKR
notes: Mouse hybridoma IgG raised in fXII knockout mice immunized with human fXII
